According to patent US9156809B2, “Carboxy ester ketals, methods of manufacture, and uses thereof” (SEGETIS, INC., priority 2012, dated 2015):

Legend:
[1] = Minimum film forming temperature (MFFT) of latex coating formulation; conditions: UCAR 379G
[2] = as above; conditions: UCAR 625

Molecule	MFFT ([1]; coalescent loading 1% (wt. %))	MFFT ([1]; coalescent loading 2% (wt. %))	MFFT ([2]; coalescent loading 1% (wt. %))	MFFT ([2]; coalescent loading 2% (wt. %))
2,2,4-trimethyl-1,3-pentanediol monoisobutyrate [TPM]	6.0 °C	2.8 °C	–	–
CCCCC(CC)COC(=O)CCC1(C)OCC(C)O1 (centres unmarked) [2EH-LPK, 2-ethylhexyl levulinate propylene glycol ketal]	5.6 °C	2.2 °C	4.3 °C	1.3 °C
CCOC(=O)CCC1(C)OCC(C)O1 (centres unmarked) [EtLPK, ethyl levulinate propylene glycol ketal]	4.4 °C	1.6 °C	4.3 °C	0.9 °C
CC(C)OC(=O)CCC1(C)OCC(C)O1 (centres unmarked) [iPrLPK, isopropyl levulinate propylene glycol ketal]	5.1 °C	2.2 °C	4.1 °C	0.9 °C
